Measured values as given in paper PMC6203356.
Results are given in words; binding and its absence hold for the method and conditions named. Binding seen in cells or lysates may run through a third protein. Some binding calls cover weakened binding; strength is not graded here.

Legend:
[1] = molecular target: CENP-A (endogenous, soluble pre-assembly fraction) (human (endogenous in SW480)) (UniProt P49450); assay: co-IP; CENP-A IP (ACA serum) or mock IP from the soluble fraction (PBS, 0.5% NP-40) of SW480 cells treated 72 hours with control or HJURP siRNA; Western blot for the chaperones
GFP-CENP-A = GFP-CENP-A (UniProt P49450); assay: co-IP; IP of GFP-CENP-A or CENP-A-mCherry expressed in SW480 cells; Western blot for DAXX and HIRA
CENP-A-mCherry = CENP-A-mCherry (UniProt P49450); assay: as above

binding [1]: binds
binding (GFP-CENP-A): binds
binding (CENP-A-mCherry): binds
Substance: DAXX (endogenous) (from UniProt Q9UER7 1-740)
